Measured values: publication PMC7301494
Results are given in words; binding and its absence hold for the method and conditions named. In cells and extracts the contact can be indirect. Binding calls can cover weak binding; strength is not graded here.

Sequences of proteins named here, by UniProt entry; tags and fusion partners are left off. A change or cut given only in a name is not applied to a line headed by its entry.
UniProt Q8ILM5: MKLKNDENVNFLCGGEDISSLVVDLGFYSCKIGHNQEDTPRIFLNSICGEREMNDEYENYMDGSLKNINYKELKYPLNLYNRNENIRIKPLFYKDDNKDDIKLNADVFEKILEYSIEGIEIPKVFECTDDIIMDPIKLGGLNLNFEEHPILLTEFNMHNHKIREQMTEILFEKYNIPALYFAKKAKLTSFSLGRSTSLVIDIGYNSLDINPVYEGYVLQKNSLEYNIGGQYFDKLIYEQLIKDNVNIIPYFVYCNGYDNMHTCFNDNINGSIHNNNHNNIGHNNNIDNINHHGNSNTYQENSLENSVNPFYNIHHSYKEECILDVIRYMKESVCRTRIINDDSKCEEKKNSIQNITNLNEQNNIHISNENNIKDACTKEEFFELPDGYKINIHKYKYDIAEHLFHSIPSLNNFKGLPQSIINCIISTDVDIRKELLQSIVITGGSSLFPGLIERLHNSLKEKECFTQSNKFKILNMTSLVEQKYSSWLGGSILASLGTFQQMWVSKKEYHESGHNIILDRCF
UniProt Q8IBQ9: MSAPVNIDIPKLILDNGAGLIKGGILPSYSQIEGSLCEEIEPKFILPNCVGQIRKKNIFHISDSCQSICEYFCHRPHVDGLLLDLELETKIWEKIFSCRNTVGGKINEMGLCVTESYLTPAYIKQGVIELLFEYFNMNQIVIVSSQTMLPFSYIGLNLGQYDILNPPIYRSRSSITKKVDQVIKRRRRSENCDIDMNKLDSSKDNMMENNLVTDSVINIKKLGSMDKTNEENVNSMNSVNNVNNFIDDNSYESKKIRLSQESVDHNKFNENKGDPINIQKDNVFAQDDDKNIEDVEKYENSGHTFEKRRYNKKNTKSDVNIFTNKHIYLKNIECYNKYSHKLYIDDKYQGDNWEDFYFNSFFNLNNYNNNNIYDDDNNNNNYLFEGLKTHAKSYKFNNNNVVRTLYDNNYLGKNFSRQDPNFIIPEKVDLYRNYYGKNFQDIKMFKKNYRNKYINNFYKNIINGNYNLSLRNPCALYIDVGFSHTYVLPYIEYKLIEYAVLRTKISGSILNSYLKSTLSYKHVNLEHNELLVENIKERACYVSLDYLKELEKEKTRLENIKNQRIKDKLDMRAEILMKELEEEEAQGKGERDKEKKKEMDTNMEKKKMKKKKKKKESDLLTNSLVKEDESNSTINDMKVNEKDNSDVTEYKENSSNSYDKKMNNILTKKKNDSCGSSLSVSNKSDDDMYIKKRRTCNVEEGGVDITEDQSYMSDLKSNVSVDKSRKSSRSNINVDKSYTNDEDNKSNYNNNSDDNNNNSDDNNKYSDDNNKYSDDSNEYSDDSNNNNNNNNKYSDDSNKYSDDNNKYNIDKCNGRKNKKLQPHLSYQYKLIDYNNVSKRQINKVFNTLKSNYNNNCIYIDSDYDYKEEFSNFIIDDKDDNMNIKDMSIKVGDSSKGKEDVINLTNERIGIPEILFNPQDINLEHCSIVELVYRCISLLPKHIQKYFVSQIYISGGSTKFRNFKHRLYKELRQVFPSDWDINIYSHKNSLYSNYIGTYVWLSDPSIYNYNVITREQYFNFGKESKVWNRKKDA

Target: PfArp4-Ty1 (Plasmodium falciparum actin-related protein Arp4, Ty1x3-tagged) (P. falciparum 3D7) (UniProt Q8ILM5)
Assay: co-IP; lysate of asynchronous PfArp4-Ty1::PfArp6-HA parasites (saponin-released, sonicated; 25 mM Tris-Cl pH 7.5, 100 mM KCl, 2 mM EDTA, 0.05% NP-40); magnetic beads conjugated with HA antibody, overnight at 4 °C; washed with IPP500 (500 mM NaCl); western blot with anti-PfAldolase, anti-HA and anti-Ty1; 3D7_G7 line as negative control

binding: binds
Substance: PfArp6-HA (Plasmodium falciparum actin-related protein Arp6, HAx3-tagged) (from UniProt Q8IBQ9)
